Several values for one entry are separate records, joined by “and”; a condition that tells them apart may be missing. Equal values may be shown once. About 6,100 (1.1%) of roughly 580,000 compounds were called active. This list was built around the results that the source calls inconclusive (neither active nor inactive); the mix of calls is not that of the screen. Calls follow the shape of the dose curve; as a rule, active = well fitted inhibition curve with a large enough effect; inconclusive = small, poorly fitted or top-dose-only effect, or another doubt; inactive = no such curve, though single readings can be large or run the other way. A potency beside an inconclusive call is a rough fit, not a confirmed value.
target: Polyunsaturated fatty acid lipoxygenase ALOX12 (Homo sapiens) (UniProt P18054); assay: Primary qHTS assay for inhibitors of human arachidonate 12S-lipoxygenase (ALOX12): Round 2; details: purified 12hLO, xylenol orange hydroperoxide absorbance; activity change, negative = inhibition: at 108 µM (top of the series) unless noted
Summary of the method: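 Purified human 12hLO at 150 nM in 25 mM Hepes, 0.01% Triton X-100, pH 7.0, preincubated 15 min at room temperature with compound. Reaction started with 40 uM arachidonic acid, 30 min at room temperature. Hydroperoxide measured by Fe-xylenol orange, 573/405 nm absorbance ratio.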
% is scaled to controls: 0 for no effect and ±100 for the full control effect; potency is read from the fitted curve at half-maximal effect.

The chains behind the UniProt entries cited, without tags or fusion partners. Where a name states a change or a piece, a line headed by the entry shows the natural chain unless it says otherwise.
UniProt P18054: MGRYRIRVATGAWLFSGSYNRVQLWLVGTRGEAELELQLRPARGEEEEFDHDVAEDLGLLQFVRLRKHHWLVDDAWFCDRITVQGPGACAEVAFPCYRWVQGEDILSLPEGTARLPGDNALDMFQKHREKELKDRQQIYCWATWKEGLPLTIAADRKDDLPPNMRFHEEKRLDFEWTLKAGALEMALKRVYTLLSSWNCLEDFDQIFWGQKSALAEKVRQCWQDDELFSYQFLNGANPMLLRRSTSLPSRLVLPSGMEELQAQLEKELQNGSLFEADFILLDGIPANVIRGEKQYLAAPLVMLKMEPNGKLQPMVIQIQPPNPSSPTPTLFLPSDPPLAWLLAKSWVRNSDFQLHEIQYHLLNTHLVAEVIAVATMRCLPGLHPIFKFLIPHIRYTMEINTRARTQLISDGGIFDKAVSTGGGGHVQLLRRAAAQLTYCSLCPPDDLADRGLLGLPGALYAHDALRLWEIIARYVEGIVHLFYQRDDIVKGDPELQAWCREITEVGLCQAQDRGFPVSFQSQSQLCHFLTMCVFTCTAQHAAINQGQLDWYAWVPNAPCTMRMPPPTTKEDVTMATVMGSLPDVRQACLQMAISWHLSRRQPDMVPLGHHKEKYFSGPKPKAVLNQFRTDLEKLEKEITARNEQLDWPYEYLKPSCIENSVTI

Structure (SMILES) | activity change, negative = inhibition | Potency
CCc1ccc(N2C(=O)CN(S(C)(=O)=O)CC2(C)C(=O)NCc2ccccc2)cc1 (stereo not given) | inactive: -3.82% | 
COc1c(OC2OC(C(=O)O)C(O)C(O)C2O)cc(O)c2c(=O)cc(-c3ccccc3)oc12 (stereo not given) | inactive: -20.2% | 
CC1SC(=NC(=O)c2ccco2)NC1=O (stereo not given) |  | inconclusive: 79.4 µM [inhibitor, partial curve, poor fit]
O=[N+]([O-])c1ccc(N2CCN(S(=O)(=O)c3ccccc3)CC2)cc1NCc1cccnc1 |  | inconclusive: 44.7 µM [inhibitor, partial curve, poor fit]
O=C(Nc1ccc(OC(F)(F)F)cc1)c1[nH]ncc1[N+](=O)[O-] | inactive: -3.84% | 
CN(CC(=O)N1CCN(c2oc(-c3ccco3)nc2C#N)CC1)Cc1ccc(C(F)(F)F)cc1 |  | inconclusive: 56.2 µM [inhibitor, partial curve, poor fit]
COc1ccc2cc(CNC(=O)CNC(=O)c3ccccc3)ccc2c1 |  | inconclusive: 112 µM [inhibitor, partial curve, poor fit]
CC1CN(CCCCOc2ccc(F)cc2)CC(C)O1 (stereo not given) |  | inconclusive: 0.631 µM [inhibitor, full curve, poor fit]
COc1ccccc1C(=O)COC(=O)c1ccccc1O | inactive: -5.76% | 
CC1CCCC(NC(=O)CCC(=O)N2CCOc3ccccc32)C1C (stereo not given) | inactive: 1.87% | 
CC(O)CCc1nc2ccc(C(=O)O)cc2[nH]1 (stereo not given) |  | inconclusive: 39.8 µM [inhibitor, partial curve, poor fit]
CCCCN(CCCC)CCCNC(=O)c1cc(-c2ccc(Cl)s2)nc2ccccc12 |  | inconclusive: 50.1 µM [inhibitor, partial curve, poor fit]
CC(C)c1ccc(C2CC(=O)N3CN(C4CCCCC4)CSC3=C2C#N)cc1 (stereo not given) |  | active: 17.8 µM
NS(=O)(=O)c1cccc(NC(=O)COC(=O)Cc2ccc(S(=O)(=O)N3CCCCC3)s2)c1 |  | inconclusive: 44.7 µM [inhibitor, partial curve, poor fit]
C#CCOCCOCCOCCNc1nc(N2CCOCC2)nc(N2CCN(C(=O)[C@H]([C@@H](C)O)n3cc(CCCCN)nn3)CC2)n1 |  | inconclusive: 28.2 µM [inhibitor, full curve]
Cc1ccc2c(C)cc(SCC(=O)N3CCOCC3)nc2c1 |  | inconclusive: 100 µM [inhibitor, single point]
COc1cccc(OC)c1C(=O)OCC(=O)NCCNC(=O)COC(=O)c1c(OC)cccc1OC |  | inconclusive: 79.4 µM [inhibitor, single point]
CCCCC(NS(=O)(=O)c1ccc(OC)cc1)C(=O)O (stereo not given) |  | inconclusive: 50.1 µM [inhibitor, partial curve, poor fit]
O=C(Nc1ccc(S(=O)(=O)Nc2ncccn2)cc1)c1nn(Cc2ccccc2)c(=O)c2ccccc12 | inactive: -11.5% | 
CCN1c2cc(C(=O)Nc3ccc(F)c(Cl)c3)ccc2C(=O)N2CCCC21 (stereo not given) |  | inconclusive: 2.82 µM [inhibitor, full curve]
Cc1ccc(C(C)NC(=O)Cc2c(C)[nH]c3ccccc23)o1 (stereo not given) | inactive: -22.1% | 
COCCNc1ncncc1-c1ccccc1OC |  | inconclusive: 50.1 µM [inhibitor, partial curve, poor fit]

Single entries from the list.
Potency, `CC(O)CCc1nc2ccc(C(=O)O)cc2[nH]1` (stereo not given) is entered as inconclusive: 39.8 µM [inhibitor, partial curve, poor fit]
activity change, negative = inhibition, `COc1ccccc1C(=O)COC(=O)c1ccccc1O` is entered as inactive: -5.76%
Potency, `C#CCOCCOCCOCCNc1nc(N2CCOCC2)nc(N2CCN(C(=O)[C@H]([C@@H](C)O)n3cc(CCCCN)nn3)CC2)n1` is entered as inconclusive: 28.2 µM [inhibitor, full curve]
activity change, negative = inhibition, `COc1c(OC2OC(C(=O)O)C(O)C(O)C2O)cc(O)c2c(=O)cc(-c3ccccc3)oc12` (stereo not given) is entered as inactive: -20.2%

Following part

Structure (SMILES) | activity change, negative = inhibition | Potency
CCOC(=O)c1c(CN2CCN(C)CC2)oc2ccc(OC)cc12 |  | inconclusive: 50.1 µM [inhibitor, partial curve, poor fit]
COc1cc(C2C(C#N)=C(N)Oc3n[nH]c(C)c32)cc(Br)c1OCc1ccccc1 (stereo not given) |  | inconclusive: 10 µM [inhibitor, partial curve, poor fit]
Cn1c(=O)c2c(nc(NCc3ccco3)n2CCc2ccccc2)n(C)c1=O | inactive: -7.41% | 
CCOc1ccc2nc(NC3=NC(c4ccc(OC)cc4)CC(=O)N3)nc(C)c2c1 (stereo not given) |  | inconclusive: 79.4 µM [inhibitor, single point]
CC(=O)CSc1nc(-c2cccs2)c(C#N)c(=O)[nH]1 |  | inconclusive: 50.1 µM [inhibitor, partial curve, poor fit]
O=C(CN1C(=O)NC2(CCCCC2)C1=O)Nc1nc2c(F)cc(F)cc2s1 |  | inconclusive: 50.1 µM [inhibitor, partial curve, poor fit]
CCn1c(CSc2nc3ccccc3[nH]2)n[nH]c1=S |  | inconclusive: 35.5 µM [inhibitor, partial curve, poor fit]
O=c1[nH]nc(CNc2ccc(C(F)(F)F)cc2)c2ccccc12 | inactive: 0.574% | 
Cc1ccc(C(=O)C2C(=O)c3ccccc3C2=O)cc1 |  | inconclusive: 50.1 µM [inhibitor, partial curve, poor fit]
c1ccc(CCN(Cc2ccccc2)Cc2ccc(OCc3ccccc3)cc2)cc1 |  | inconclusive: 0.251 µM [inhibitor, full curve]
CCOc1ccc2oc(C(=O)OCC(=O)N3CCCC(C)C3)c(C)c2c1 (stereo not given) | inactive: 1.1% | 
C=CC(=O)N1CCc2ccc(-n3c(=O)ccc4cnc5ccc(-c6cnn(C)c6)cc5c43)cc21 |  | inconclusive: 19.3 µM [inhibitor, single point]
CCn1cc2nc(SCc3cc(C)ccc3C)n(Cc3ccc(Cl)cc3)c(=O)c2n1 |  | inconclusive: 5.01 µM [inhibitor, full curve, poor fit]
COc1ccc(OCCNC(=O)C2(C)CCN2Cc2ccc(SC)cc2)cc1 (stereo not given) |  | inconclusive: 50.1 µM [inhibitor, partial curve, poor fit]
CC(C)COC(=O)N1CCCC1C(=O)Nc1nccs1 (stereo not given) |  | inconclusive: 12.6 µM [inhibitor, partial curve, poor fit]
N#CCc1ccc(NC(=O)Cn2c(=O)oc3ccccc32)cc1 |  | inconclusive: 28.2 µM [inhibitor, single point]
COC(=O)Cn1c(C)nc([N+](=O)[O-])c1Br | inactive: 1.87% | 
Cc1cc(C2CCCN2Cc2nc(-c3ccccc3)oc2C)on1 (stereo not given) |  | inconclusive: 56.2 µM [inhibitor, partial curve, poor fit]
CCN1CCN(CCN2CC3(CCN(C(=O)[C@H](C)NC)CC3)OC2=O)CC1 |  | inconclusive: 11.2 µM [inhibitor, full curve]
c1ccc(OCCN2CCC(c3nc4ccccc4s3)CC2)cc1 |  | active: 5.01 µM
CCOC(=O)c1ccc(NC(=O)Cc2noc3ccc(C)cc23)cc1 | inactive: 6.34% | 
COc1ccc(NC(=O)N2CCC(Oc3ccc(-c4noc(C5CC5)n4)cc3)C2)cc1 (stereo not given) | inactive: 40.6% | 

Structure (SMILES) | activity change, negative = inhibition | Potency
Cc1ccc(/C=N/Nc2ccccn2)s1 |  | inconclusive: 112 µM [inhibitor, single point]
O=C(CN1C(=O)C2CC=CCC2C1=O)Nc1nc2ccc(F)cc2s1 (stereo not given) |  | inconclusive: 44.7 µM [inhibitor, partial curve, poor fit]
COC(=O)Cn1c(=NC(=O)c2ccc(Cl)s2)sc2cc(F)ccc21 | inactive: -6.26% | 
CCCn1c(SCC(=O)Nc2cccc(C(=O)OCC)c2)nnc1-c1ccoc1C |  | inconclusive: 141 µM [inhibitor, partial curve, poor fit]
COc1ccc(Cn2c(C3CCN(C(=O)COc4ccccc4)CC3)n[nH]c2=O)cc1 |  | inconclusive: 17.8 µM [inhibitor, full curve, poor fit]
Cc1ccc(Cn2c(C3CCN(C(=O)c4ccc(F)c(Cl)c4)CC3)n[nH]c2=O)cc1 | inactive: 36.3% | 
CN(CC(=O)Nc1ccc(F)cc1)C(=O)c1cc([N+](=O)[O-])ccc1N1CCOCC1 |  | inconclusive: 31.6 µM [inhibitor, partial curve, poor fit]
CC(C)CCNC(=S)NCc1ccco1 |  | active: 31.6 µM
Cc1ccccc1NC(=O)c1sc2c(c1C)C(c1cccs1)CC(=O)N2 (stereo not given) |  | active: 25.1 µM
CN(CCOc1ccc(F)cc1)c1nc(-c2cccnc2)nc2ccccc12 |  | inconclusive: 50.1 µM [inhibitor, partial curve, poor fit]
Cc1cccc(-n2c3nc(=O)[nH]c(=O)c-3cc3ccc(Cl)cc32)c1C |  | inconclusive: 14.1 µM [inhibitor, partial curve, poor fit]
COc1cc(OC)c2ccc(=O)oc2c1C(CC(=O)N1CCCC(C)C1)c1ccc2c(c1)OCO2 (stereo not given) |  | inconclusive: 44.7 µM [inhibitor, partial curve, poor fit]
C=CCN(c1ccccc1OC)S(=O)(=O)c1cccc(C(=O)NC2=NCCS2)c1 | inactive: 0.0472% | 
O=C(NCCc1ccc(Cl)cc1)c1nc(-c2ccc(Cl)nc2)c2cnccn12 | inactive: 1.54% [at 6.33 µM] | 
Cn1cc(-c2nc3cnc(OCc4ccccc4)nc3n(CCC#N)c2=O)c2ccccc21 |  | inconclusive: 28.2 µM [inhibitor, partial curve, poor fit]
CCOC(=O)c1oc2ccc(OC)cc2c1NC(=O)CN1CCN(C)CC1 | inactive: -15.8% | 
O=C(/C=C/Sc1ccccc1)c1ccc(Br)cc1 |  | inconclusive: 44.7 µM [inhibitor, partial curve, poor fit]
COc1c(C2=CC(=O)N(C)C2=O)c2c(n1C)C(=O)c1ccccc1C2=O |  | inconclusive: 22.4 µM [inhibitor, partial curve, poor fit]
CCCCC(O)(c1ccc(CC)cc1)C(CN1CCOCC1)c1ccccc1 (stereo not given) |  | inconclusive: 31.6 µM [inhibitor, single point]
COc1ccc(-c2coc3cc(O)cc(O)c3c2=O)cc1 |  | inconclusive: 38.5 µM [inhibitor, partial curve, poor fit] and inconclusive: 44.7 µM [inhibitor, partial curve, poor fit]
COC(=O)CSc1cnc2ccccc2n1 | inactive: -0.454% | 
